Results are given in words; binding and its absence hold for the method and conditions named. In cells and extracts the contact can be indirect. Some binding calls cover weakened binding; strength is not graded here.
Biological target: FLAG–WT PCTAIRE-1 (isoform 1) (human) (UniProt Q00536)
Experiment: co-IP; HA–cyclin Y-like-1 (WT, S122A or S344A) co-expressed with FLAG–WT PCTAIRE-1 in COS-1; lysates immunoprecipitated with FLAG–agarose, immunoblot

By UniProt entry, the sequences of proteins in these tests, tags left out. Where a name states a change or a piece, a line headed by the entry shows the natural chain unless it says otherwise.
UniProt Q00536: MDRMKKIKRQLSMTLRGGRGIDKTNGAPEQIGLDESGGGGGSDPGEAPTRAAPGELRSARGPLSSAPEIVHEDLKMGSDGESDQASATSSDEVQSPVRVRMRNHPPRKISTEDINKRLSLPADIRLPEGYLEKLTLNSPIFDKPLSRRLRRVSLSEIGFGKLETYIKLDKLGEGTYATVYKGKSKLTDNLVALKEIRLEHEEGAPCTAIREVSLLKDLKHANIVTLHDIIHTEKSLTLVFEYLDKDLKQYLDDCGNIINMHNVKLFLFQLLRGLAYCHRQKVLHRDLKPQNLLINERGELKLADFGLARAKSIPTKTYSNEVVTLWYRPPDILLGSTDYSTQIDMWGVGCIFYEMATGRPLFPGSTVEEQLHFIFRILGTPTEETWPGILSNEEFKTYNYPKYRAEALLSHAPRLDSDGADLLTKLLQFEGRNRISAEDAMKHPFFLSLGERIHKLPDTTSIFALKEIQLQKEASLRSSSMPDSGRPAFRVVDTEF
UniProt Q8N7R7: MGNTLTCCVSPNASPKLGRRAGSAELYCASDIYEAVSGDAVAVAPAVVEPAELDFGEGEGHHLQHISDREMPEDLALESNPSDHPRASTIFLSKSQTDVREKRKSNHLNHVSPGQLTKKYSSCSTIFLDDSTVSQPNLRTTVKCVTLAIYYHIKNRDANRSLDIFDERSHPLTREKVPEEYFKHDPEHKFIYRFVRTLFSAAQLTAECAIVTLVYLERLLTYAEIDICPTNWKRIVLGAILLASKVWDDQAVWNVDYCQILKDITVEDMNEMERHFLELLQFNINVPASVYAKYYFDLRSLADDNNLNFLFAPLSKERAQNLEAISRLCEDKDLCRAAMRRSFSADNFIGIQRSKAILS

binding | Substance
binds | HA–WT cyclin Y-like-1 (from UniProt Q8N7R7 1-359)
no binding | HA–cyclin Y-like-1 S344A (from UniProt Q8N7R7 1-359)
no binding | HA–cyclin Y-like-1 S122A (from UniProt Q8N7R7 1-359)

— PMC4613515
